# Measurements published in paper PMC11206880, “The RNA Helicase Ded1 from Yeast Is Associated with the Signal Recognition Particle and Is Regulated by SRP21” (Molecules, 2024).
# By UniProt entry, the sequences of proteins in these tests, tags left out. Where a name states a change or a piece, a line headed by the entry shows the natural chain unless it says otherwise.
# UniProt P32342: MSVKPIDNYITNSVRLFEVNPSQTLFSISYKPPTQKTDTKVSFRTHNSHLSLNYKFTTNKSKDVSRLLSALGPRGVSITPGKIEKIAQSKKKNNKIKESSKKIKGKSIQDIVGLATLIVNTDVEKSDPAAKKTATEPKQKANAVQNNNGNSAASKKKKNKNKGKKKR
# UniProt P06634: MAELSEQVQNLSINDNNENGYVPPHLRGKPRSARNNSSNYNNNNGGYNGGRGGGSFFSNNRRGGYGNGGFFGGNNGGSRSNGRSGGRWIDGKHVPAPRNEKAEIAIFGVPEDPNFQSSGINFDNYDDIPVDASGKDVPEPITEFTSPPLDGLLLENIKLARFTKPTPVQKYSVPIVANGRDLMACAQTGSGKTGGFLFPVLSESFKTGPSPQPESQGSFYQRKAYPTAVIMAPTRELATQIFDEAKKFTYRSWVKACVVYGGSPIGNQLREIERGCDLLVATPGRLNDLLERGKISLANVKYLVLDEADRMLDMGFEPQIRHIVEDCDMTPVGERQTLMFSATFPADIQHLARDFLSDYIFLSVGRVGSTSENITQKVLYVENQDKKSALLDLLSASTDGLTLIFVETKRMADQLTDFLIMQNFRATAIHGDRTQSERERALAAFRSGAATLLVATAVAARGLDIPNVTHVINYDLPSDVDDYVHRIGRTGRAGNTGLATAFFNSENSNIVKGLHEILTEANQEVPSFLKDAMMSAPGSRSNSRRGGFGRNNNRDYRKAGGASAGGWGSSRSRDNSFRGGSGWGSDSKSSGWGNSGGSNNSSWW
# Legend:
# SRP21 = SRP21 (UniProt P32342); experiment: EMSA (agarose); conditions: 50 nM RNA, large aggregates only partially enter the gel; EMSA: 20 mM Tris-base pH 8.8, 70 mM KOAc, 2 mM MgCl2, 10 ug/uL BSA, 1 mM DTT, with or without 5 mM AMP-PNP or ATP, 0.15 uM RNA, 15 min at 30 C; 1% agarose, 1x TBE, 4 C; recombinant protein; residues 1-167; protein details: C-terminal 6xHis (pET22b); probe letters rebuilt from the primers and the genome; part of a longer molecule
# Ded1 = Ded1 (UniProt P06634); experiment: EMSA (agarose); conditions: 5- to 10-fold excess Ded1 shifts the majority, 0.15 uM RNA, EMSA: 20 mM Tris-base pH 8.8, 70 mM KOAc, 2 mM MgCl2, 10 ug/uL BSA, 1 mM DTT, with or without 5 mM AMP-PNP or ATP, 15 min at 30 C, 1% agarose, 1x TBE, 4 C, recombinant protein, residues 1-604, protein details: C-terminal 6xHis (pET22b), probe letters rebuilt from the primers and the genome, part of a longer molecule
sequence,measurement,setting,value
"UGUAAUGGCUUUCUGGUGGGAUGGGAUACGUUGAGAAUUCUGGCCGAGGAACAAAUCCUUCCUCGCGGCUAGACACGGAUUGCACGCCCUUUGGGCAAGGGAUAGUUCUCUAUUCCGCACCGUGCCCUGUUGUGGCAACCGUCUUUCCUCCGUCGUAAAUUUGUCCUGGGCAGAGCUGUCUGCCCGGAGGCGGGAGAGUCCGUUCUGAAGUGUCCCGGCUAUAAUAAAUCGAUCUUUGCGGGCAGCCCGUUGGCAGGAGGCGUGAGGAAUCCGUCUCUCUGUCUGGUGCGGCAAGGUAGUUCUGGGUCCUUAGGGGCUCCACCUUCACCGCUGUUAGGGGAGUUUUAUCCAGCGUCAGCAAAGGUGACCCGUGAUGGAGGCGGCCGGGAUAGCACAUAUCAGUCGGAUAAUUGUGCAAGUUGAUCGCUUCGGCGGUUUAAUUUGGCGGUGCCAUCAGGAUUUACUCGCACAUUGUGGCCGUUCCCUCGGGGAUGGAGUGUGUCCUGAACCAUAUUUUU [SCR1 RNA (T7 transcript, 522 nt)]",binding result,SRP21,binds
same,binding result,Ded1,binds

# The exact form of at least one protein or probe is not confirmed.
